{
  "sequences": {"note": "Protein sequences, listed by entry. Tags and fused reporters are not part of them. Lines headed by an entry give the natural chain unless they say otherwise; changes in a name come on top.", "UniProt Q5TAX3": "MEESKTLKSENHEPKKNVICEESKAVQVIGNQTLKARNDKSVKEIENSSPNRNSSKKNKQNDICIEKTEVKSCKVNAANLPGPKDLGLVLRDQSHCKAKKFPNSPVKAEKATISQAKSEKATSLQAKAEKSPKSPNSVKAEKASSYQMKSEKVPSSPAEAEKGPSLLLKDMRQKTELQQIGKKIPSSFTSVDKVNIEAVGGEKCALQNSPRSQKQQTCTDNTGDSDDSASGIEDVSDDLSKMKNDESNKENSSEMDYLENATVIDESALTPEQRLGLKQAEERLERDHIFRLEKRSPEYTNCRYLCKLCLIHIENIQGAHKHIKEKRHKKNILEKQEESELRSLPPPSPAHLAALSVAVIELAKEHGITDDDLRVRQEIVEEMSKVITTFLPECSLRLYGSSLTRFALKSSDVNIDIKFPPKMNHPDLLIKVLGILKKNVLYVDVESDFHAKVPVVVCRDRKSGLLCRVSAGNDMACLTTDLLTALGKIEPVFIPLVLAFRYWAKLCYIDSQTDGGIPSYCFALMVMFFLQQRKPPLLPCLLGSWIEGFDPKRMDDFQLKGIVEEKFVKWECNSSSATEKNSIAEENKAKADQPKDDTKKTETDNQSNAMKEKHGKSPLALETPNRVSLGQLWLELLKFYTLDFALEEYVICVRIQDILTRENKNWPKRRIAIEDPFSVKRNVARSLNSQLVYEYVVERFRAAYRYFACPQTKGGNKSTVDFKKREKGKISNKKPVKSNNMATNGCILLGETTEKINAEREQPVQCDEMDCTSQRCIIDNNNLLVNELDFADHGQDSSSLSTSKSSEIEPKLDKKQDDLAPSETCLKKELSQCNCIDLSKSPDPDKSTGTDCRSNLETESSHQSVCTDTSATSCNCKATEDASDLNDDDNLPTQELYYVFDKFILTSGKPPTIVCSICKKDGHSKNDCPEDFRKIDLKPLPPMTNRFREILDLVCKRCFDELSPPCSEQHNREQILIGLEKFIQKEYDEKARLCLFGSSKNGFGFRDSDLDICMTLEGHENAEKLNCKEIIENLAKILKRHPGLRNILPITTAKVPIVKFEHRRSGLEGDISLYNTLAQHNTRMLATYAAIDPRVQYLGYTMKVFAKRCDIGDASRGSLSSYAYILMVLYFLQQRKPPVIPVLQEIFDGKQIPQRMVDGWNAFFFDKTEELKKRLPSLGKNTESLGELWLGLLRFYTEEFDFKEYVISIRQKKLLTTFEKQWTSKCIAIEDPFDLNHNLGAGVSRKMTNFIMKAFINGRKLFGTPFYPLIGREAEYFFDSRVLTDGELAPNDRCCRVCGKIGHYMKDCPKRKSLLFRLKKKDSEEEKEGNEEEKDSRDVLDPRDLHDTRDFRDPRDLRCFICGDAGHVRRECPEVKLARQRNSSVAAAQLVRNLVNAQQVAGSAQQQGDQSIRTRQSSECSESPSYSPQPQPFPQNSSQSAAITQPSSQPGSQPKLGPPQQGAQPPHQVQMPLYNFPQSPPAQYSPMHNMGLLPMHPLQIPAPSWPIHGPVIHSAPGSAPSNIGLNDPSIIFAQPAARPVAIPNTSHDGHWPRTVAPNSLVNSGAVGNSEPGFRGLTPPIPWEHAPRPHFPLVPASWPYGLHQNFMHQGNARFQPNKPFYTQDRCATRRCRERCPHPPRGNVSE"},
  "source": "paper PMC6488673",
  "about": "“Crystal structure of the Lin28-interacting module of human terminal uridylyltransferase that regulates let-7 expression”",
  "molecular_target": "T1, recombinant human Lin28A (residues 1-209) (human) (UniProt Q9H9Z2)",
  "T1 sequence": "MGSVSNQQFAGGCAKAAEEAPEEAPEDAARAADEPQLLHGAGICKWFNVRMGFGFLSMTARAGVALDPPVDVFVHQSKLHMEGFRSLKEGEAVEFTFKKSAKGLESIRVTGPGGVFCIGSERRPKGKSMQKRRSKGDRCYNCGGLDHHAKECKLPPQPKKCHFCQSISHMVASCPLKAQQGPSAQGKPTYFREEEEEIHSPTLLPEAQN",
  "assay": "RNA footprinting with Tb (III); 100 nM 5'-[32P]-labelled pre-let-7a-1 with or without 1 µM recombinant Lin28A and TUT4 variants; 50 mM Tris-HCl pH 8.5, 100 mM NaCl, 10 mM MgCl2, 5% glycerol, 10 mM β-mercaptoethanol, 22 °C; 10 mM Tb (III), 2 h; protection of the RNA is read; both purified",
  "note": "These are yes or no findings as the source states them, for the method shown.",
  "data": [
    {"substance": "hTUT4_N_ΔZ (human TUT4 residues 334-723) (from UniProt Q5TAX3) (domain or fragment)", "values": [
      {"measurement": "binding", "value": "no binding (tested: 1 µM)"}
    ]}
  ]
}
